In PMC11331741:
Results are given in words; binding and its absence hold for the method and conditions named. Binding seen in cells or lysates may run through a third protein. Some entries that bind do so weakly or less than the wild type.

Amino acid sequences for entries named in this document (tags omitted). A change or cut given only in a name is not applied to a line headed by its entry. Residues count along the entry.
UniProt P11802: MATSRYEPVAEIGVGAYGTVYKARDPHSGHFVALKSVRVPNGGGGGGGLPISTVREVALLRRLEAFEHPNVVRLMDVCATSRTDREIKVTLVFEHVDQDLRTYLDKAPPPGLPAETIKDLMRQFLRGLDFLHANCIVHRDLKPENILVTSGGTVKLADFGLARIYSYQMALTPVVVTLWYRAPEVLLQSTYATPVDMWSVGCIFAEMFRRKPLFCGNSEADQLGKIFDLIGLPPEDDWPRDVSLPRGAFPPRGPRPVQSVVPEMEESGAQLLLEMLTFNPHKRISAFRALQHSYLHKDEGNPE
GFP-CDK4-N-term: residues 1-96 of P11802
GFP-CDK4-C-term: residues 96-303 of P11802
UniProt Q9Y297: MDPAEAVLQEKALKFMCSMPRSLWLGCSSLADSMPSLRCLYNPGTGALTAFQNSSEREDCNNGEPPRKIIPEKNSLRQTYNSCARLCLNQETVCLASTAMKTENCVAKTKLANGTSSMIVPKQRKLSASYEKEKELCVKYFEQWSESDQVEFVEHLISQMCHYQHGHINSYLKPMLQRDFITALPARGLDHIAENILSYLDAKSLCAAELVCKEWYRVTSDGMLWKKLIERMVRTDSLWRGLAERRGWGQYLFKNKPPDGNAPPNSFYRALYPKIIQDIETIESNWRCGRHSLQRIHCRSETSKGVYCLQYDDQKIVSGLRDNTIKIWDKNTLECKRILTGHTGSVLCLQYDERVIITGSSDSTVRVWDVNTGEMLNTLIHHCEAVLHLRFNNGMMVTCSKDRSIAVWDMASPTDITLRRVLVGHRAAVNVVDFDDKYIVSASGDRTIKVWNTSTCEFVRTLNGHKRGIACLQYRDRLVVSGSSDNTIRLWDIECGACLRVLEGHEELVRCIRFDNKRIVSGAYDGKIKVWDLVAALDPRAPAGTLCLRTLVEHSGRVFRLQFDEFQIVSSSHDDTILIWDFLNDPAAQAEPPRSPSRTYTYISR

Assays:
Assay in all cases: co-IP; HA- and GFP-tagged plasmids transiently co-transfected 1:1 into LN229 cells, lysed after 36 h; lysate incubated with anti-HA or anti-GFP mAb magnetic beads for 4-5 h at 4 °C; Western blot
GFP-CDK4 = GFP-CDK4 (UniProt P11802)
GFP-CDK4-C-term = GFP-CDK4-C-term (UniProt P11802)
GFP-CDK4-N-term = GFP-CDK4-N-term (UniProt P11802)

With HA-β-TrCP1 (from UniProt Q9Y297 1-605) the binding (GFP-CDK4) was “binds”, the binding (GFP-CDK4-C-term) was “no binding” and the binding (GFP-CDK4-N-term) was “binds”.
